Measurements reported in PubChem BioAssay AID493246 (Drosophila RNAi Screening Center, 2011).

Assay: 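Genome-wide search for dsRNAs that reduce cell number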 (primary screen)
Cell system: Drosophila Kc and S2R+ cells
Reagent: long dsRNA against Drosophila genes
Measurement: 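Raw, unnormalised count of remaining cells in each well; per-plate z-scores of cell number underlie the calls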
Reading the numbers: Kc cell number and S2R+ cell number: higher = more cells remaining
Call rule: 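Active when the per-plate z-score of cell number is 3 or more in the direction of fewer cells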
The screen tested about 21,000 reagents; below is an unselected part of those with a known target gene and a result. Over the whole deposit, 429 (2%) were called active. 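Values are raw and not normalised between plates; calls rest on per-plate z-scores that were not deposited.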 The record does not give: the amount of reagent, the time to read-out.

no.	Gene	amplicon	Kc cell number, rep 1	Kc cell number, rep 2	S2R+ cell number, rep 1	S2R+ cell number, rep 2	activity call
1	CG16976 (retired record)	DRSC08499	1.38e6	1.29e6	1.04e6	1.21e6	inactive
2	Mpcp1	DRSC07337	1.63e6	1.73e6	1.26e6	1.43e6	inactive
3	CG15036	DRSC17968	1.35e6	1.44e6	9.54e5	1.08e6	inactive
4	Prp19 (Pre-RNA processing factor 19)	DRSC07434	1.53e6	1.56e6	1.10e6	1.20e6	inactive
5	Mt2 (Methyltransferase 2)	DRSC03374	1.56e6	1.58e6	1.34e6	1.42e6	inactive
6	nuf (nuclear fallout)	DRSC11379	1.45e6	1.47e6	1.21e6	1.37e6	inactive
7	CG43078	DRSC10292	1.26e6	1.31e6	1.26e6	1.09e6	inactive
8	CG43078	DRSC10608	1.50e6	1.56e6	1.30e6	1.07e6	inactive
9	Ddr (Discoidin domain receptor)	DRSC00922	1.53e6	1.58e6	1.05e6	1.15e6	inactive
10	Ddr (Discoidin domain receptor)	DRSC00923	1.43e6	1.47e6	1.04e6	1.14e6	inactive
11	Ddr (Discoidin domain receptor)	DRSC02150	1.62e6	1.91e6	1.11e6	1.26e6	inactive
12	Ddr (Discoidin domain receptor)	DRSC03229	1.67e6	1.74e6	1.12e6	1.30e6	inactive
13	Ddr (Discoidin domain receptor)	DRSC03230	1.73e6	1.59e6	1.15e6	1.31e6	inactive
14	CG13868	DRSC06427	1.24e6	1.26e6	1.11e6	1.18e6	inactive
15	CG8562	DRSC10995	1.45e6	1.31e6	1.09e6	1.19e6	inactive
16	CG8927	DRSC16458	1.16e6	1.27e6	1.12e6	1.22e6	inactive
17	Cdep (Chondrocyte-derived ezrin-like domain containing protein)	DRSC12028	1.51e6	1.70e6	1.24e6	1.35e6	inactive
18	Cdep (Chondrocyte-derived ezrin-like domain containing protein)	DRSC12220	1.63e6	1.62e6	1.24e6	1.32e6	inactive
19	Cdep (Chondrocyte-derived ezrin-like domain containing protein)	DRSC12291	1.81e6	2.01e6	1.31e6	1.34e6	inactive
20	hdm (hold'em)	DRSC18013	1.47e6	1.45e6	1.00e6	1.14e6	inactive
21	Scm (Sex comb on midleg)	DRSC16853	1.50e6	1.46e6	1.24e6	1.30e6	inactive
22	Mgat1	DRSC07463	1.64e6	1.48e6	9.88e5	1.26e6	inactive
23	Acp76A (Accessory gland protein 76A)	DRSC09665	1.56e6	1.78e6	1.16e6	1.32e6	inactive
24	trus (toys are us)	DRSC15772	1.81e6	1.82e6	1.14e6	1.32e6	inactive
25	Alp1 (Alkaline phosphatase 1)	DRSC11781	1.48e6	1.57e6	1.20e6	1.29e6	inactive
26	CG11313	DRSC14295	1.75e6	1.81e6	1.10e6	1.20e6	inactive
27	Flo1 (Flotillin 1)	DRSC07427	1.37e6	1.48e6	1.17e6	1.16e6	inactive
28	CG11674	DRSC19414	5.88e5		7.68e5		inactive
29	CG15429	DRSC00444	1.57e6	1.58e6	1.21e6	1.38e6	inactive
30	CG4537	DRSC02756	1.72e6	1.64e6	1.26e6	1.42e6	inactive
31	CG11396	DRSC11654	1.68e6	1.76e6	1.43e6	1.57e6	inactive
32	CG15773	DRSC18079	1.44e6	1.41e6	1.05e6	1.09e6	inactive
33	CG8841	DRSC07286	1.46e6	1.55e6	1.20e6	1.25e6	inactive
34	Rh6 (Rhodopsin 6)	DRSC16823	1.47e6	1.51e6	1.16e6	1.23e6	inactive
35	Task7 (TWIK-related acid-sensitive K[+] channel 7)	DRSC16477	1.60e6	1.63e6	1.26e6	1.41e6	inactive
36	CG8915	DRSC20119	1.51e6	1.56e6	1.03e6	1.10e6	inactive
37	CG3342	DRSC18304	5.81e5		9.10e5		inactive
38	CPT2 (Carnitine palmitoyltransferase 2)	DRSC08553	1.20e6	1.56e6	1.09e6	1.17e6	inactive
39	CG30151	DRSC05888	5.14e5		7.53e5		inactive
40	Nubpl (NUBP iron-sulfur cluster assembly factor, mitochondrial)	DRSC03725	1.32e6	1.37e6	1.09e6	1.19e6	inactive
